Record: PubChem BioAssay AID1259254 (NCATS, 2017)
In all, the deposit lists about 59,000 reagents; this is an unselected part. Of all reagents, about 1,550 (2.6%) are marked active. 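G2 share is only a proxy for re-replication; each gene was hit by three separate siRNAs, and active genes were retested.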 The numbers tell different reagents against one gene apart. Not all columns of the deposit are shown. Reagent sequences are not shown. Not stated in the record: the amount of reagent.

- Test: 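Finding genes that stop cells copying their DNA twice in one cycle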 (primary screen)
- System: human HCT116 colorectal cancer cells
- Reagent: single siRNA against human genes
- Time to read-out: 3 days
- Measurement: 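Nuclei stained with Hoechst and imaged; cell-cycle phase assigned by DNA content; G2 share scaled per plate, non-targeting siRNA 0%, GMNN siRNA 100%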
- Scale: G2 robust z-score: higher = more G2 cells, more excess DNA replication
- Active means: 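Active siRNAs have a G2 robust z of 5 or more median absolute deviations over the median, which in these data means about 38% or higher of GMNN control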

{"gene knocked down": "SLC1A5", "siRNA no.": 1, "G2 robust z-score": -1.37, "activity call": "inactive"}
{"gene knocked down": "SLC1A5", "siRNA no.": 2, "G2 robust z-score": 0.716, "activity call": "inactive"}
{"gene knocked down": "SLC1A5", "siRNA no.": 3, "G2 robust z-score": 0.0465, "activity call": "inactive"}
{"gene knocked down": "KHDC3L", "siRNA no.": 1, "G2 robust z-score": -0.431, "activity call": "inactive"}
{"gene knocked down": "KHDC3L", "siRNA no.": 2, "G2 robust z-score": 0.668, "activity call": "inactive"}
{"gene knocked down": "KHDC3L", "siRNA no.": 3, "G2 robust z-score": 11.4, "activity call": "active"}
{"gene knocked down": "LGI1", "siRNA no.": 1, "G2 robust z-score": -0.26, "activity call": "inactive"}
{"gene knocked down": "LGI1", "siRNA no.": 2, "G2 robust z-score": -0.55, "activity call": "inactive"}
{"gene knocked down": "LGI1", "siRNA no.": 3, "G2 robust z-score": -1.01, "activity call": "inactive"}
{"gene knocked down": "SLC2A14", "siRNA no.": 1, "G2 robust z-score": 0.671, "activity call": "inactive"}
{"gene knocked down": "SLC2A14", "siRNA no.": 2, "G2 robust z-score": 0.409, "activity call": "inactive"}
{"gene knocked down": "SLC2A14", "siRNA no.": 3, "G2 robust z-score": -0.551, "activity call": "inactive"}
{"gene knocked down": "SDC1", "siRNA no.": 1, "G2 robust z-score": 3.03, "activity call": "inactive"}
{"gene knocked down": "SDC1", "siRNA no.": 2, "G2 robust z-score": -1.4, "activity call": "inactive"}
{"gene knocked down": "SDC1", "siRNA no.": 3, "G2 robust z-score": 0.435, "activity call": "inactive"}
{"gene knocked down": "LRRC56", "siRNA no.": 1, "G2 robust z-score": -1.07, "activity call": "inactive"}
{"gene knocked down": "LRRC56", "siRNA no.": 2, "G2 robust z-score": 0.155, "activity call": "inactive"}
{"gene knocked down": "LRRC56", "siRNA no.": 3, "G2 robust z-score": 1.39, "activity call": "inactive"}
{"gene knocked down": "GPR137", "siRNA no.": 1, "G2 robust z-score": 1.47, "activity call": "inactive"}
{"gene knocked down": "GPR137", "siRNA no.": 2, "G2 robust z-score": 1.19, "activity call": "inactive"}
{"gene knocked down": "GPR137", "siRNA no.": 3, "G2 robust z-score": 2.5, "activity call": "inactive"}
{"gene knocked down": "SSH1", "siRNA no.": 1, "G2 robust z-score": 2.25, "activity call": "inactive"}
{"gene knocked down": "SSH1", "siRNA no.": 2, "G2 robust z-score": 2.28, "activity call": "inactive"}
{"gene knocked down": "SSH1", "siRNA no.": 3, "G2 robust z-score": 1.96, "activity call": "inactive"}

Ordered by “G2 robust z-score” (ascending): some entries from above.
{"gene knocked down": "LGI1", "siRNA no.": 3, "G2 robust z-score": -1.01, "activity call": "inactive"}
{"gene knocked down": "SLC2A14", "siRNA no.": 2, "G2 robust z-score": 0.409, "activity call": "inactive"}
{"gene knocked down": "SLC2A14", "siRNA no.": 1, "G2 robust z-score": 0.671, "activity call": "inactive"}
